Values from PubChem BioAssay AID1224826 (NIAID, 2016)
The whole screen tested about 17,000 reagents; below is a random part of them. About 1,110 of all reagents (6.6%) count as active. 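Active means lowered or raised reporter signal; replicate intensities are raw and not normalised per plate.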 Further read-outs or replicates are left out here.

- Purpose: 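Knock-downs that raise or lower Tnf reporter signal after endotoxin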 (primary screen)
- Cells: RAW264.7 G9 macrophages from mouse bearing reporters for p65 (GFP) and the Tnf promoter (mCherry)
- Reagents: siRNA pool against mouse genes, 100 nM
- Timing: 16 h of LPS stimulation, after 2 days of siRNA transfection
- Conditions: bacterial lipopolysaccharide (Salmonella minnesota R595), 10 ng/ml
- Detection: 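Nuclear mCherry signal of the Tnf promoter reporter measured by imaging after background removal, scaled to each plate median and turned into robust z-scores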
- Direction: Tnf reporter robust z-score: higher = stronger Tnf promoter reporter signal after LPS
- Active means: 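Called active when robust z-score is at most -1.3, matching the median of the Tlr4 knock-down control, or over 3; control wells and wells with under 50 cells never active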
- Meaning of the calls: active = Tnf reporter clearly lowered or raised; inactive = no clear change in Tnf reporter

For Atp6v1b2, the entry reads Tnf reporter robust z-score 0.87; fewer than 50 cells in well enough cells in well; inactive.
Rab40b gave Tnf reporter robust z-score 0.54; fewer than 50 cells in well enough cells in well; inactive.
For Card19, the entry reads Tnf reporter robust z-score 2.08; fewer than 50 cells in well enough cells in well; inactive.
Champ1 scored Tnf reporter robust z-score -0.43; fewer than 50 cells in well enough cells in well; inactive.
With knock-down of Abca6, the record shows Tnf reporter robust z-score 1.46; fewer than 50 cells in well enough cells in well; inactive.
Plppr2 scored Tnf reporter robust z-score 0.38; fewer than 50 cells in well enough cells in well; inactive.
Silencing of Psg23 gave: Tnf reporter robust z-score 0.27; fewer than 50 cells in well enough cells in well; inactive.
Zp3r gave Tnf reporter robust z-score -1.51; fewer than 50 cells in well enough cells in well; active.
Mrgpra8 showed Tnf reporter robust z-score 1.23; fewer than 50 cells in well enough cells in well; inactive.
Greb1 showed Tnf reporter robust z-score -0.27; fewer than 50 cells in well enough cells in well; inactive.
For Rpusd1, the entry reads fewer than 50 cells in well fewer than 50 cells per well; well left out of calls; inactive.
Knock-down of Ttc28 came out at: Tnf reporter robust z-score 1.4; fewer than 50 cells in well enough cells in well; inactive.

Single entries from above:
For “Outcome”, Zp3r shows active
Rpusd1, Outcome → inactive
